{
  "source": "paper doi:10.1101/2020.02.12.945162",
  "target": "T1, GST-tagged Frizzled6 C-terminal domain (GST-Frizzled6^497-567) (UniProt O60353)",
  "T1 sequence": "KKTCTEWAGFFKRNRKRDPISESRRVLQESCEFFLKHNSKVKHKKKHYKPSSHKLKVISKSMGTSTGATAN",
  "assay": "pull-down",
  "note": "Results are given in words; binding and its absence hold for the method and conditions named. Binding can be weak; no strength is given. Tags and fused reporters may be left off the sequences shown.",
  "data": [
    {"substance": "FLAG-tagged C-terminal unfolded domain of epsinR (epsinR^ΔENTH-FLAG) (domain or fragment)", "values": [
      {"measurement": "binding", "value": "binds"}
    ]}
  ]
}
